Assay results: paper PMC7601681 (Biomolecules, 2020)

Assay: general procedure: Fmoc solid-phase peptide synthesis; 2-chlorotrityl chloride resin; DMT/NMM/TosO-, NMM
Conditions: whole synthesis, Anal. RP-HPLC; LC-MS for identity, scale 0.1 mmol

Row | Substance | crude HPLC purity [%]
1 | PEPTIDE1{[PyBu].V.E.A.L.Y.L}$$$$V2.0 | 78
2 | Py-LYQLENY-OH | 77

Some peptides are written in HELM: one residue between dots, names in brackets for other building blocks, links after the first $.
